# Experimental data published in the supplement of paper PMC12819154, “High-throughput peptide-centric local stability assay extends protein–ligand identification to membrane proteins, tissues and bacteria” (Nature Structural & Molecular Biology, 2025).
# Chains of the proteins cited; added tags and fusions are not shown. Lines headed by an entry give the natural chain unless they say otherwise; changes in a name come on top.
# UniProt Q6Y7W8: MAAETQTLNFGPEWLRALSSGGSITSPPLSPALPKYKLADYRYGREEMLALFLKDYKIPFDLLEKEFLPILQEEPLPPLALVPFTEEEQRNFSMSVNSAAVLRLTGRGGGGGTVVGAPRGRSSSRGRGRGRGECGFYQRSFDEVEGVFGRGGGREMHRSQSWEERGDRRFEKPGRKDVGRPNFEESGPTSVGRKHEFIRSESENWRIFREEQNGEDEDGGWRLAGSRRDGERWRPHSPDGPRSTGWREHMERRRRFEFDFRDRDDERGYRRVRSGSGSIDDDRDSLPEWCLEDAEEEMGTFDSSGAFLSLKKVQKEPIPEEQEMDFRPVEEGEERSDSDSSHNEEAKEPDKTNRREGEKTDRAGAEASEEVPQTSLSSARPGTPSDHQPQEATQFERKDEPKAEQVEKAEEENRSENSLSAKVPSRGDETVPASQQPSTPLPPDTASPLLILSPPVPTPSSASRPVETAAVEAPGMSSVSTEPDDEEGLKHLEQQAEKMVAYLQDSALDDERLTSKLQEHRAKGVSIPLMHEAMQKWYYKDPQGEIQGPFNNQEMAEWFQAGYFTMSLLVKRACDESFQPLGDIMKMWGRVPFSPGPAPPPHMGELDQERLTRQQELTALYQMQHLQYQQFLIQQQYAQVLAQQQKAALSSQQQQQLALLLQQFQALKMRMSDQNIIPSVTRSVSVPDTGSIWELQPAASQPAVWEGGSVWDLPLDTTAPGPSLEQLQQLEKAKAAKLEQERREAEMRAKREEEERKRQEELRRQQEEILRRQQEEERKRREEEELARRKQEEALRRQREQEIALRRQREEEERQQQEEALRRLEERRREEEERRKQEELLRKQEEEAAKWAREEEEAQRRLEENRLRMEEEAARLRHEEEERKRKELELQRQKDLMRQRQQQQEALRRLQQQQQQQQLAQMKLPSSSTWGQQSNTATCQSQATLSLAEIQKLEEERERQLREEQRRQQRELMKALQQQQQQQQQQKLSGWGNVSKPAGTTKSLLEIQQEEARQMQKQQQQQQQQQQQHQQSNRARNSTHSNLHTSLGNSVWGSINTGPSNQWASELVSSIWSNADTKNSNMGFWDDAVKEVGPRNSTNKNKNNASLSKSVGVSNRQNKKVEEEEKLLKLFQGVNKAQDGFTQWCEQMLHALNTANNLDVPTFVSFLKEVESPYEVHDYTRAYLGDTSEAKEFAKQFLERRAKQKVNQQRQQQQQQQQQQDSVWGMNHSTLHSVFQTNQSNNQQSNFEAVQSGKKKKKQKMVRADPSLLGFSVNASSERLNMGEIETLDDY
# UniProt Q6ZPR1: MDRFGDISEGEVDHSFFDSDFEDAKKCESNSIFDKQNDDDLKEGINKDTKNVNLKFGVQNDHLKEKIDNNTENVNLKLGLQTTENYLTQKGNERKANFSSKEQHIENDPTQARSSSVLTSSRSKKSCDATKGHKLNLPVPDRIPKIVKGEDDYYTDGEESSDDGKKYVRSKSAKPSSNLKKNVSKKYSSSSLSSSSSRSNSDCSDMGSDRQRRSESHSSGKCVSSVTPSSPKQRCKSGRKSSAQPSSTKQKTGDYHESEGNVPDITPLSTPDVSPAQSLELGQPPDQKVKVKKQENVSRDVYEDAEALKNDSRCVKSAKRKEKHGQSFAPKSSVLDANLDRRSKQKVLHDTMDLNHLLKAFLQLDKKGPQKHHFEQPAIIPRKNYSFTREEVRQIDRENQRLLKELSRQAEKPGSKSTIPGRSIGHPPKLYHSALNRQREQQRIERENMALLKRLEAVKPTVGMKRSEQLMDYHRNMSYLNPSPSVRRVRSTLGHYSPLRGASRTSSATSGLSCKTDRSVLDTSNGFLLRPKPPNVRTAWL
# UniProt Q80V24: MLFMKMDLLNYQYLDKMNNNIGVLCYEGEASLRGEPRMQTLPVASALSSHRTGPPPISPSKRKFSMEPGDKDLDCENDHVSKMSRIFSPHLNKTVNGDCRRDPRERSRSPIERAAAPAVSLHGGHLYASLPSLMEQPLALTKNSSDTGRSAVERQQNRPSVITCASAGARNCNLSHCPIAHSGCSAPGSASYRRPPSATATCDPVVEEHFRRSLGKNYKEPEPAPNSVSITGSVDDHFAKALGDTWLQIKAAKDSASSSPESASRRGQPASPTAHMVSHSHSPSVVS
# UniProt Q80TZ3: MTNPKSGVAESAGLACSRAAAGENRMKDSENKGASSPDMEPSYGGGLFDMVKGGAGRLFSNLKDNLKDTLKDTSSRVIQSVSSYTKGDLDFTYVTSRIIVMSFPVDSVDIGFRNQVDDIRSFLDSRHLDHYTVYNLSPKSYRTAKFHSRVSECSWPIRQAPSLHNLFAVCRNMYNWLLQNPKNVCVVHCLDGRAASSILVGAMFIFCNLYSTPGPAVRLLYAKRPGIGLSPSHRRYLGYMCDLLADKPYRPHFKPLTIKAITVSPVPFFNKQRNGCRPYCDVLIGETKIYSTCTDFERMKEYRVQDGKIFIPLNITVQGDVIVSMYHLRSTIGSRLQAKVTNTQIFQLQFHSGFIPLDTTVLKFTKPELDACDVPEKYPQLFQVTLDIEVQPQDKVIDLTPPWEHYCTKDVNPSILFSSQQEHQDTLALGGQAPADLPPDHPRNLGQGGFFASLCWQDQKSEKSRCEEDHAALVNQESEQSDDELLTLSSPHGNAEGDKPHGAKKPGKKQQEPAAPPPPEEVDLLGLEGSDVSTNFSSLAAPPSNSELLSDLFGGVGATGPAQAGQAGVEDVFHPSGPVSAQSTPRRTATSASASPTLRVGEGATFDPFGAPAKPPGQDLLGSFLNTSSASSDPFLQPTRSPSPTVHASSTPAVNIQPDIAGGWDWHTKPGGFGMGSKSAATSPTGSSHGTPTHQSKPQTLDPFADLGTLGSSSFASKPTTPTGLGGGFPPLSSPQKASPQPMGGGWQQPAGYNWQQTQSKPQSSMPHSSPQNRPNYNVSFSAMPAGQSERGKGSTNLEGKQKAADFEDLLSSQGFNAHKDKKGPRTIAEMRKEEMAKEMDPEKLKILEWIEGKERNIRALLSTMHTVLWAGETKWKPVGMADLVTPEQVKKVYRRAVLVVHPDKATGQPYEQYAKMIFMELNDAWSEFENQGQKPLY
# UniProt Q80UP3: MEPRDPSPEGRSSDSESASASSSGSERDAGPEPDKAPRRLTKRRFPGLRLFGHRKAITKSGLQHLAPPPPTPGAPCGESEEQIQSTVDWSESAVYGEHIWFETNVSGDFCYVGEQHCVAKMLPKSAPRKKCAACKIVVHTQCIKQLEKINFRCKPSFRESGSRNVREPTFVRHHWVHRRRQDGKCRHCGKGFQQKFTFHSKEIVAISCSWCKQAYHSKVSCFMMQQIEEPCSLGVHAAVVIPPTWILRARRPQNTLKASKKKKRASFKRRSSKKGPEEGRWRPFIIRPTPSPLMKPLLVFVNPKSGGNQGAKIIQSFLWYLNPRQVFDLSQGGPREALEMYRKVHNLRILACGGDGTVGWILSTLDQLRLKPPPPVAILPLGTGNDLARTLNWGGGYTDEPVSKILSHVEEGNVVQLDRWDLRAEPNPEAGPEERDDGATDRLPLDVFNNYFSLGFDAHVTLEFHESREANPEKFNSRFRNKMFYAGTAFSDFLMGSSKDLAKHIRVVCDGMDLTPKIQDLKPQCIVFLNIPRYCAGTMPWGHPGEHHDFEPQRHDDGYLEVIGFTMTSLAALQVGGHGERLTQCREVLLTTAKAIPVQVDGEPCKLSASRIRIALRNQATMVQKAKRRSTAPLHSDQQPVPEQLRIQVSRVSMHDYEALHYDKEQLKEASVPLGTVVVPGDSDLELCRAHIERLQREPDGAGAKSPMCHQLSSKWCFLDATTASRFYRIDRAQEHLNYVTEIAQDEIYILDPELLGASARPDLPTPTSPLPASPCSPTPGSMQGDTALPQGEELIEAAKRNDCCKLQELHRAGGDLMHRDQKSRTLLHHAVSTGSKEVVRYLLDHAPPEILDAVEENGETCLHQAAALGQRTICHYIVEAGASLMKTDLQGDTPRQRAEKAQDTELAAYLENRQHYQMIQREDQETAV
# UniProt Q7JJ13, whole entry: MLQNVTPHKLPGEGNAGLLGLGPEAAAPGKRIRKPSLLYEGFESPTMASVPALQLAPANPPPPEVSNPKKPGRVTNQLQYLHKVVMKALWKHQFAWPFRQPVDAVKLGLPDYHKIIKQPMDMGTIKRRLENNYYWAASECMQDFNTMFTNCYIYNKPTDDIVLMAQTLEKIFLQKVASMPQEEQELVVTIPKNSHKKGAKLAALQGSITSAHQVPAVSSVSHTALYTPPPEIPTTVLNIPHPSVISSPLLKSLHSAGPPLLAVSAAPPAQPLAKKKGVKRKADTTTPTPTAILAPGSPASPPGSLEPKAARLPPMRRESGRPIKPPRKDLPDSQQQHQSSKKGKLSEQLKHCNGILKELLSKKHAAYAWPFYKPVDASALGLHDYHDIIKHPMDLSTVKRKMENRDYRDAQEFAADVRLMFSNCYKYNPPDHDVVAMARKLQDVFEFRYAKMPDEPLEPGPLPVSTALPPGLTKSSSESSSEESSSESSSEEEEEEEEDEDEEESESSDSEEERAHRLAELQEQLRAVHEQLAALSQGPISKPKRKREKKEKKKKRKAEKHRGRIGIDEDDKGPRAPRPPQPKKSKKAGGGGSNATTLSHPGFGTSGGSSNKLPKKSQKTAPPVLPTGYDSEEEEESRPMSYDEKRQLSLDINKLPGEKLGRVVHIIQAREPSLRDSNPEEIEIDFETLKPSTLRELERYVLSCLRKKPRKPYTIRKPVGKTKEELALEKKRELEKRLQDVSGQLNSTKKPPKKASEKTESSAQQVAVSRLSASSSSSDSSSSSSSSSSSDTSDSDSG
# UniProt Q6ZQ82: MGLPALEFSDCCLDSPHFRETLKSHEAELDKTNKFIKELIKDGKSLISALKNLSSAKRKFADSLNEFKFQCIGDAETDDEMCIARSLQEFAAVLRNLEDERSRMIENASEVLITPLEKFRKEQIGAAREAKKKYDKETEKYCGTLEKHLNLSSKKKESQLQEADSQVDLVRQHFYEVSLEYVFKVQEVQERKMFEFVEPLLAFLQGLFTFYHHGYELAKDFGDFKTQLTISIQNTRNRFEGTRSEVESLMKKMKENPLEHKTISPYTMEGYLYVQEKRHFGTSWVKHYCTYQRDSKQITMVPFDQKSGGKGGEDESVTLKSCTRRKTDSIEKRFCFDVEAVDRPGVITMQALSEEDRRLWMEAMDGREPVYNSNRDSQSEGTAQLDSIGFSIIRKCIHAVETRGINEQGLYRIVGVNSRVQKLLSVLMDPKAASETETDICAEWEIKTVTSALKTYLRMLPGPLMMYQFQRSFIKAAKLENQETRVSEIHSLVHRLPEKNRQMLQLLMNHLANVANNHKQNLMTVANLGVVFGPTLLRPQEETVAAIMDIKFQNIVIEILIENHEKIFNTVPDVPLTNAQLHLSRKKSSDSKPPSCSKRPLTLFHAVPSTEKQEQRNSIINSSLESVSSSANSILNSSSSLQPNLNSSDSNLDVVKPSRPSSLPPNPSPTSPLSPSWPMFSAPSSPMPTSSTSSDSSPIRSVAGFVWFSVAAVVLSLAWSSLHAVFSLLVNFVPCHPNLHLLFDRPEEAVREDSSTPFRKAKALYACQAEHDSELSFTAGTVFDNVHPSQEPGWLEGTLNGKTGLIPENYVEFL
# UniProt Q80UJ7: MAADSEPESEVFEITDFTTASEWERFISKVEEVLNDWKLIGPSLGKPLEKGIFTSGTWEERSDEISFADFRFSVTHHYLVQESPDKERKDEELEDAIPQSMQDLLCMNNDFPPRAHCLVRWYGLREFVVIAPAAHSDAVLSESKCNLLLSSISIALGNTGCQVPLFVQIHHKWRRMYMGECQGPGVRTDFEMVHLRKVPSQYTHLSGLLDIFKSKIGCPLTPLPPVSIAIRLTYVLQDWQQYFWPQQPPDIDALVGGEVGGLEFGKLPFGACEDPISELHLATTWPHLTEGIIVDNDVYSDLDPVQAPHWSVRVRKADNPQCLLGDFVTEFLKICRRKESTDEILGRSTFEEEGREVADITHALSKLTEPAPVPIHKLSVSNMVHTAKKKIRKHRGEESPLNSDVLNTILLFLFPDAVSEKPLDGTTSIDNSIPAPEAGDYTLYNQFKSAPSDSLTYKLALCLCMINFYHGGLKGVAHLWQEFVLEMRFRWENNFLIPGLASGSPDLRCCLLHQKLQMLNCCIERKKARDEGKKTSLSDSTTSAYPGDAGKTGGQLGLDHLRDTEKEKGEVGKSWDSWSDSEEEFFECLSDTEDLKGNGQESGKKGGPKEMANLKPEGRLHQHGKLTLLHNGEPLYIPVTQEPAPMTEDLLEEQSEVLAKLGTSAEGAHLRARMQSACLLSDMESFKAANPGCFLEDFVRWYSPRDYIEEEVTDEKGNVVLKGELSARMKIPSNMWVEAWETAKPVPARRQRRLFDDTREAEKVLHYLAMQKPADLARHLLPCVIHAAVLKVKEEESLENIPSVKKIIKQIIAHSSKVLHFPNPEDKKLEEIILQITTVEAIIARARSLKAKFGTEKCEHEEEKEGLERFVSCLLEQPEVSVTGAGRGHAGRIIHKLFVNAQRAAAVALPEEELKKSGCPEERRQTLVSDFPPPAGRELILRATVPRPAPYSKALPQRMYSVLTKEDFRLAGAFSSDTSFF
# Some of the results follow. Most entries show no effect beyond the scatter of the controls.
# Compound: CN[C@@H]1C[C@H]2O[C@@](C)([C@@H]1OC)n1c3ccccc3c3c4c(c5c6ccccc6n2c5c31)C(=O)NC4 [staurosporine]
# Assay: log2 fold change of tryptic peptide abundance, ligand vs vehicle (limited proteolysis) (log2 ratio); higher = more trypsin-susceptible (destabilized)
# Conditions: ligand concentration: 20 uM; sample: mouse liver crude lysate; replicate design: treated separately
row,Target,log2 fold change
1,"UniProt Q80UN1 (peptide sequence: MLCSNAEGASLR, peptide start residue: 230)",-0.3
2,"UniProt Q6Y7W8 (peptide sequence: AEQVEKAEEENRSENSLSAK, peptide start residue: 403)",0.307
3,"UniProt Q6ZQH8 (peptide sequence: CVLHLLTYFQDERHPYR, peptide start residue: 139)",-0.396
4,"UniProt Q6ZPR1 (peptide sequence: VLHDTMDLNHLLK, peptide start residue: 347)",0.419
5,"UniProt Q7TNE1 (peptide sequence: MSEAKPPPLLGQHTR, peptide start residue: 393)",-0.173
6,"UniProt Q80U38 (peptide sequence: ESHFLQK, peptide start residue: 487)",-0.31
7,"UniProt Q80U35 (peptide sequence: ATPDEPAPASK, peptide start residue: 1040)",-0.39
8,"UniProt Q6ZPL9 (peptide sequence: CPLQEMSLQR, peptide start residue: 389)",0.205
9,"UniProt Q7TPV4 (peptide sequence: EHKLPNVALDLLR, peptide start residue: 259)",0.145
10,"UniProt Q80SY4 (peptide sequence: HHTLSQLR, peptide start residue: 709)",0.287
11,"UniProt Q80V94 (peptide sequence: SSSSVLSDYLSCHCQK, peptide start residue: 1102)",0.523
12,"UniProt Q7TPD2 (peptide sequence: QGSAPDDSGAGLAR, peptide start residue: 34)",0.0519
13,"UniProt Q80V24 (peptide sequence: IFSPHLNK, peptide start residue: 86)",0.302
14,"UniProt Q80UF7 (peptide sequence: AWQAEMNK, peptide start residue: 581)",0.303
15,"UniProt Q6ZQB6 (peptide sequence: EKLIAWK, peptide start residue: 296)",0.32
16,"UniProt Q6ZQ38 (peptide sequence: CLGPLVSK, peptide start residue: 71)",-0.244

# As a short view, part of the list above.
row,Target,log2 fold change
12,"UniProt Q7TPD2 (peptide sequence: QGSAPDDSGAGLAR, peptide start residue: 34)",0.0519
13,"UniProt Q80V24 (peptide sequence: IFSPHLNK, peptide start residue: 86)",0.302

# (cont.)

row,Target,log2 fold change
1,"UniProt Q80TZ3 (peptide sequence: AVLVVHPDK, peptide start residue: 1264)",-0.42
2,"UniProt Q7TPR4 (peptide sequence: HTNYNMEHIR, peptide start residue: 705)",0.12
3,"UniProt Q80UP3 (peptide sequence: TDLQGDTPR, peptide start residue: 888)",-0.149
4,"UniProt Q7JJ13 (peptide sequence: GRIGIDEDDKGPR, peptide start residue: 563)",-0.328
5,"UniProt Q80U62 (peptide sequence: QSQAGSVLR, peptide start residue: 379)",-0.272
6,"UniProt Q6ZQ82 (peptide sequence: KEQIGAAREAK, peptide start residue: 121)",-0.133
7,"UniProt Q7TPM9 (peptide sequence: MFSLKPPRPSFR, peptide start residue: 1)",0.265
8,"UniProt Q7M6Z0 (peptide sequence: DLPAEDSR, peptide start residue: 350)",0.135
9,"UniProt Q80U78 (peptide sequence: GNVLVLSQHK, peptide start residue: 1070)",0.222
10,"UniProt Q6ZQJ5 (peptide sequence: VANAVLALPNLK, peptide start residue: 854)",-0.0677
11,"UniProt Q7TQI7 (peptide sequence: SNSQALNSSAQQHR, peptide start residue: 37)",-0.238
12,"UniProt Q80U22 (peptide sequence: GQEGPGDMDR, peptide start residue: 1208)",0.635
13,"UniProt Q7TT00 (peptide sequence: LLDFLQK, peptide start residue: 263)",-0.452
14,"UniProt Q80UJ7 (peptide sequence: LQMLNCCIER, peptide start residue: 516)",0.666
15,"UniProt Q7TN02 (peptide sequence: LLQAIDSQSNIR, peptide start residue: 15)",0.535
